# Measurements published in PubChem BioAssay AID2685 (National Center for Advancing Translational Sciences (NCATS), 2010).
# The other results are listed elsewhere or left out. Shown are side measurements of this screen, not its main read-out; they come without a call. The list favours compounds with an active or inconclusive main result. Potencies come from curve fits of mixed quality, noted in brackets.
# Test: qHTS Assay for Lipid Storage Modulators in Drosophila S3 Cells;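 for cell number change: cells counted by Cell Tracker Red CMTPX staining in the red channel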
# Conditions: BODIPY lipid droplet fluorescence, 18-24 h; for cell number change: measured here: cell count max response, cells fed with added oleic acid
# Procedure, shortened: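 Drosophila S3 cells loaded with oleic acid (400 uM, as added) and compounds at several concentrations; lipid droplets imaged by 488-nm laser-scanning cytometry, 500–530 nm intensity and object ratio to cell channel. Percent activity normalized to 20 uM Triacsin C.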
# [1] = measured here: lipid fluorescence (Fed channel) AC50, cells fed with added oleic acid
# [2] = measured here: cell number channel AC50, cells fed with added oleic acid
smiles,measurement,setting,value
CN(C)c1ccnc(N(Cc2ccccc2)Cc2ccccc2)c1C#N,AC50,[1],"5.8 µM [falling, single point]"
CC(C)(C)c1nc2ccccc2c(=O)n1N1C(=O)c2ccccc2C1=O,cell number change,,8.68%
same,AC50,[1],"0.164 µM [rising, full curve, poor fit]"
Cc1ccc(C(=O)NCCNC(=O)COc2ccc(C)c(C)c2)cn1,cell number change,,20.2%
same,AC50,[1],"29.1 µM [rising, partial curve]"
CCOC(=O)c1ccc(NC(=O)Cn2nc(C)c3ccccc3c2=O)cc1,cell number change,,9.85%
same,AC50,[1],"0.116 µM [rising, full curve, poor fit]"
Cc1cc(=O)oc2c(C)c(OC(C)C(=O)NCCN3CCOCC3)ccc12 (configuration not stated),cell number change,,-4.01%
CN(C(=O)COC(=O)c1cc([N+](=O)[O-])ccc1N1CCCC1)C1CCS(=O)(=O)C1 (configuration not stated),cell number change,,24.8%
same,AC50,[1],"2.06 µM [falling, partial curve]"
CCN(CC)S(=O)(=O)c1ccc2c(c1)nc(CCC(=O)OCC(=O)Nc1cc(Cl)cc(Cl)c1)n2C,cell number change,,4.37%
same,AC50,[1],"2.91 µM [rising, full curve]"
Nc1nc2c(s1)CC(c1ccccc1)CC2 (configuration not stated),cell number change,,-14.4%
same,AC50,[2],"0.731 µM [falling, full curve]"
same,AC50,[1],"6.51 µM [falling, single point]"
Cc1ccc(NC(=O)C(C)N=C2NS(=O)(=O)c3ccccc32)cc1 (configuration not stated),cell number change,,-15%
CC(C)c1onc(C(=O)N2CCN(Cc3ccccc3)CC2)c1[N+](=O)[O-],cell number change,,-0.624%
same,AC50,[1],"0.13 µM [rising, partial curve, poor fit]"
COc1ccc(C)cc1NC(=O)CSc1nnc(CC(=O)Nc2cccc(C(F)(F)F)c2)n1C,cell number change,,11.9%
same,AC50,[1],"0.58 µM [rising, single point]"
CC(=O)Nc1ccc(/C=C(\C#N)C(=O)NC2CCCCC2C)cc1 (configuration not stated),cell number change,,-63.5%
same,AC50,[1],"32.6 µM [falling, partial curve, poor fit]"
O=C(Nc1ccc(F)c(Cl)c1)c1ccc2c(c1)OCO2,cell number change,,-19.2%
Cc1cc(C)n(Cc2ccc(C(=O)Nc3cccc(Br)c3)o2)n1,cell number change,,-32.3%
same,AC50,[2],"29.1 µM [falling, single point]"
same,AC50,[1],"29.1 µM [falling, single point]"
COC(=O)CN1C(=O)c2cccc3cccc1c23,cell number change,,-18.8%
same,AC50,[1],"0.164 µM [rising, partial curve, poor fit]"
Cn1c(-c2ccco2)n[nH]c1=S,cell number change,,-24.6%
same,AC50,[2],"2.59 µM [falling, full curve, poor fit]"
same,AC50,[1],"4.11 µM [falling, full curve, poor fit]"
Cc1nn(-c2ccccc2)c(C)c1C(=O)NCc1ccccc1F,cell number change,,-8.73%
same,AC50,[1],"29.1 µM [rising, single point]"
CC12C(=O)N(c3cccc(OC(=O)c4ccco4)c3)C(=O)C1C1c3ccccc3C2c2ccccc21 (configuration not stated),cell number change,,13%
same,AC50,[1],"23.1 µM [rising, partial curve]"
CC(=O)OC1CC2(C)/C(=N\O)CCC2C2CCc3cc(O)ccc3C12 (configuration not stated),cell number change,,11.7%
same,AC50,[1],"9.2 µM [rising, partial curve, poor fit]"
CC1(C(=O)N2CCN(c3ccc([N+](=O)[O-])cc3)CC2)CC1(Cl)Cl (configuration not stated),cell number change,,4.21%
same,AC50,[1],"16.4 µM [falling, partial curve]"
CCCC(c1nnnn1CCC(C)C)N1CCC(C(N)=O)CC1 (configuration not stated),cell number change,,-19.5%
O=C1CN(C(=O)COc2ccc(F)cc2Br)c2ccccc2N1,cell number change,,-8.6%
CC1=CCC2C(=O)N(c3nc4ccccc4n3C)C(=O)C2C1 (configuration not stated),cell number change,,34.7%
same,AC50,[2],"29.1 µM [rising, single point]"
same,AC50,[1],"29.1 µM [rising, single point]"
Cc1cc(C(=O)N2CCc3ccccc3C2)on1,cell number change,,24.3%
O=C(COC(=O)/C=C/c1ccc(Br)o1)Nc1ccccc1F,cell number change,,164%
same,AC50,[1],"16.4 µM [rising, partial curve]"
COc1ccc(/C=N/NC(=O)c2cccc(C(=O)N/N=C/c3ccc(OC)c(OC)c3)n2)cc1OC,cell number change,,-5.56%
same,AC50,[1],"0.103 µM [rising, full curve, poor fit]"
Cn1c(SCc2ccc(Br)cc2)nnc1-c1ccccn1,cell number change,,41.3%
same,AC50,[2],"2.91 µM [rising, full curve]"
same,AC50,[1],"10.3 µM [rising, partial curve, poor fit]"
COc1ccc(N2CCN(C(=O)c3ccc(C)c(NC(=O)c4ccco4)c3)CC2)cc1,cell number change,,17%
same,AC50,[1],"18.4 µM [rising, single point]"
CC1CCCC(C)N1C(=O)CSCc1ccc(Cl)cc1 (configuration not stated),cell number change,,-7.07%
same,AC50,[2],"0.164 µM [falling, full curve]"
same,AC50,[1],"0.13 µM [falling, full curve, poor fit]"
COc1ccc(C2c3c(oc4ccccc4c3=O)C(=O)N2CC2CCCO2)cc1 (configuration not stated),cell number change,,53.1%
same,AC50,[2],"29.1 µM [rising, single point]"
same,AC50,[1],"0.651 µM [falling, single point]"
O=Cc1c[nH]c2ccc(OCc3ccccc3)cc12,cell number change,,-12.2%
same,AC50,[1],"29.1 µM [rising, single point]"
COc1cc(/C=N/NC(N)=O)ccc1OC(=O)c1ccco1,AC50,[2],"7.31 µM [falling, single point]"
CCC(C(=O)NC1CCN(C)CC1)c1ccccc1 (configuration not stated),cell number change,,-11.9%
same,AC50,[1],"29.1 µM [rising, single point]"
CN(c1ncc(C(F)(F)F)cc1Cl)N1C(=O)C2ONC3(C(=O)CC(C)(C)CC3=O)C2C1=O (configuration not stated),cell number change,,48.7%
same,AC50,[2],"0.184 µM [rising, full curve]"
COc1cc(C(=O)NC(=S)NNC(=O)c2ccc3c(c2)OCO3)cc(OC)c1OC,cell number change,,7.88%
COCCn1nnnc1C(C(C)C)N1CCC(Cc2ccccc2)CC1 (configuration not stated),cell number change,,8.1%
same,AC50,[1],"10.3 µM [rising, partial curve]"
Cc1cc(C)c(CN2CCC(n3nccc3NC(=O)C3CCCC3)CC2)cc1C,cell number change,,30.9%
same,AC50,[1],"7.31 µM [rising, partial curve]"
COC(=O)c1cn(-c2cccc(C)n2)cn1,cell number change,,-34.8%
same,AC50,[2],"2.31 µM [falling, partial curve, poor fit]"
same,AC50,[1],"0.206 µM [falling, full curve]"
COc1ccc(-c2cc(C(=O)OC3CCOC3=O)c3ccccc3n2)cc1 (configuration not stated),cell number change,,49.8%
same,AC50,[2],"9.2 µM [rising, partial curve, poor fit]"

# 3 successive records from above, quoted:
smiles,measurement,setting,value
O=Cc1c[nH]c2ccc(OCc3ccccc3)cc12,AC50,[1],"29.1 µM [rising, single point]"
COc1cc(/C=N/NC(N)=O)ccc1OC(=O)c1ccco1,AC50,[2],"7.31 µM [falling, single point]"
CCC(C(=O)NC1CCN(C)CC1)c1ccccc1 (configuration not stated),cell number change,,-11.9%

# Exported as tab-separated lines: part of the list above.
smiles	measurement	setting	value
Nc1nc2c(s1)CC(c1ccccc1)CC2 (configuration not stated)	AC50	[1]	6.51 µM [falling, single point]
O=C(Nc1ccc(F)c(Cl)c1)c1ccc2c(c1)OCO2	cell number change		-19.2%
